Results reported in publication PMC8178337.
These are yes or no findings as the source states them, for the method shown. In cells and extracts the contact can be indirect. Some binding calls cover weakened binding; strength is not graded here.

The chains behind the UniProt entries cited, without tags or fusion partners.
UniProt P15884: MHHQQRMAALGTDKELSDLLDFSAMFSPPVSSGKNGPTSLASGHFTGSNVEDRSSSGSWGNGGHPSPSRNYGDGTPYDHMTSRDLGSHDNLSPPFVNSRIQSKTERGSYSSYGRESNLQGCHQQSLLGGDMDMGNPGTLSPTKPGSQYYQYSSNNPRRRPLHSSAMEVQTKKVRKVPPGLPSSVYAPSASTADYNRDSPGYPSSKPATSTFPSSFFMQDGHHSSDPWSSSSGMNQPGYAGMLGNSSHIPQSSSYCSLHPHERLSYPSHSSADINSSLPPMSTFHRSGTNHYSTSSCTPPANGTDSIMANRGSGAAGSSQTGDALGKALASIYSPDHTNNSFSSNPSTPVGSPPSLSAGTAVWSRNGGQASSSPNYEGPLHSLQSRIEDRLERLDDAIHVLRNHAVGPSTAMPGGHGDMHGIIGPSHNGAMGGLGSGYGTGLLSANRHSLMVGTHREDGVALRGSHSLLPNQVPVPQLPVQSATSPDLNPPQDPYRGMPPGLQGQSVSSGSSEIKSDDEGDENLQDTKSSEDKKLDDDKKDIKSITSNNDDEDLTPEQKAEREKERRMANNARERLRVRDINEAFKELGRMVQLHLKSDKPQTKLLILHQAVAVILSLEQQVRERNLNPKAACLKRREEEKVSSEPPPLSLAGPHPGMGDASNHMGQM

Key:
[1] = target: T1, Runt-related transcription factor 1 (Runx1t1) (human (endogenous in 253 J and J82)) (UniProt Q06455); experiment: co-IP; reciprocal immunoprecipitation; 3 ug antibody and protein A-agarose added to 253 J cell lysates, 12 h, 4 C; western blot
T1 sequence: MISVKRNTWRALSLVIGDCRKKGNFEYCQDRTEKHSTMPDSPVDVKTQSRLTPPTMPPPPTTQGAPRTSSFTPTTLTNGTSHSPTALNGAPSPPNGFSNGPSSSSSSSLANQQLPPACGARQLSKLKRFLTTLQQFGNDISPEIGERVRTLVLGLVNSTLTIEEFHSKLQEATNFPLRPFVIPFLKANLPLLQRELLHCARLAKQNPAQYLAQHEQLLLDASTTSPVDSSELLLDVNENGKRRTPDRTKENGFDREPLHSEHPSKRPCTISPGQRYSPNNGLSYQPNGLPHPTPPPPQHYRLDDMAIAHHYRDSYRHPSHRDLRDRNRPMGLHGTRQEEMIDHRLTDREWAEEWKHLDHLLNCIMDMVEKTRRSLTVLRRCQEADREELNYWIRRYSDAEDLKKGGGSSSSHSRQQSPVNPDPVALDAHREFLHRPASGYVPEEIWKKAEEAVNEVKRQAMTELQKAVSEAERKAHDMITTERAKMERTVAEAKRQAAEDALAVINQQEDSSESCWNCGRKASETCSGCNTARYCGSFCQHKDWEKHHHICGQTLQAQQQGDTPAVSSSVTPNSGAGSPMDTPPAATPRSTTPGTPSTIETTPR

[2] = target: T1, Runt-related transcription factor 1 (Runx1t1) (human (endogenous in 253 J and J82)); experiment: proximity ligation; in situ PLA (Duolink, Rabbit PLUS and Mouse MINUS) on fixed 253 J cells with anti-Runx1t1 and anti-TCF4 antibodies; confocal microscopy

Transcription factor 4 (TCF4) (from UniProt P15884 1-667)
binding [1]: binds | binding [2]: binds
